# ± gives the standard deviation. The list shows a part of the results. The uncertainty is large for many entries.
# System: EfPiwi piRISC loaded with L1MC piRNA (26 nt)
# Assay: pre-steady-state target cleavage rate (min^-1); guide: L1MC piRNA 5'p-UAACUAAAUACUAUGCAAGCUGUAGG; MIWI and MILI are mouse PIWI proteins and EfPiwi is from a freshwater sponge; tags in brackets are library labels; higher = faster piRNA-guided slicing of the target
# Conditions: auxiliary factor: 500 nM Ephydatia muelleri Gtsf1
# Protocol: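 Cleave-'n-Seq: a library of target RNAs (target site in constant flanks) at […] was incubated with 1 nM active freshwater sponge Ephydatia fluviatilis Piwi piRISC (synthetic 5'-monophosphorylated piRNA guide) with or without 500 nM EmGtsf1 at 33 °C for 1 min to 16 h. Uncleaved targets were sequenced and the pooled three trials fitted to a burst-and-steady-state model to give the pre-steady-state cleavage rate (min^-1). Sequence is the target site only. Fits with R² ≤ 0 are excluded.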
row,Sequence,pre-steady-state target cleavage rate
1,UCCUGGAUGUCGAACGUAUCUAAUAAGUUA,0.000145 ± 0.031
2,UCCUGGAUGAGCUUGCAAAGUAUUUAGUAA,0.00293 ± 0.0033
3,UCCUGGAUGUCCUUGCUUAGUAUUUAGAUA,0.000347 ± 0.013
4,UCCUGGAACAGGAUGCAUAGUAUUUAGUUA,0.00753 ± 0.0018
5,UCCUGGAUGAGCUUGGAUAGUAUUUACAAA,0.000598 ± 0.0062
6,UCCUGGAUGAGCAAGCAUAGUAUUUAGAAA,0.00202 ± 0.0024
7,UCCUGGAUGUGCUUGCAUUGUAUUUACUUA,0.000176 ± 0.042
8,UCCUGCUACACCUAGCAUAGUAUUUAGUUA,0.0171 ± 0.0054
9,UCCUGGAUGUCCUUGCAUAGUAUUAUGUAA,0.00104 ± 0.0068
10,UCCUGGUACUCGUUGCAUAGUAUUUAGUUA,0.000601 ± 0.0068
11,UCCUGGAUCAGCUUGCAUAGUAUUUAGGUUA,0.00516 ± 0.0024
12,UCCUGGUACAGCUUGCAUAGUUUUAGUUA,0.00131 ± 0.0052
13,UCCUGGUUCUGCUUGCAUAGUAUUUAGUUA,0.0355 ± 0.011
14,UCCUGGAACAGCAUGCAUAGUAUUUACAAA,0.00222 ± 0.0025
15,UCCUGGAUCAGCUUGCAAAGUAUUUAGAAA,0.00199 ± 0.0024
16,UCCUGCUACAGCUUGCAUAGUAGUUUAGUUA,0.00695 ± 0.0028
17,UCCUGGAACAGCUUGCAUAGAAUUUUGUUA,0.00229 ± 0.0021
18,UCCUCCUACAGCUUGCAUACAAUUUUCAAA,0.000327 ± 0.0098
19,UCCUGGAUCAGCUUGCAAAGAAUUUAGUUA,0.000593 ± 0.007
20,UCCUGGAUCUGCUUGCAUAGUAAUUAGUUA,0.0152 ± 0.005
21,UCCUCCUACAGCUUGCAUAGUAAUUUGUUA,0.00652 ± 0.0028
22,UCCUGGUACAGCCUGCAUAGUAUUUAGUUA,0.00984 ± 0.0036
23,UCCUGGAUGUGCUUGCAUAGUUUUUACUUA,0.000497 ± 0.0077
24,UCCUGCUACAGCUUGCAAAGUAUUUAGUAA,0.00434 ± 0.0016
25,UCCUGGAUGUCCUUGCAUAGUAGUUUAGUUA,0.00253 ± 0.0037
26,UCCUGGAACAGCUUCGAUAGUAUUUUCAAA,0.000623 ± 0.0065

# Same assay, conditions: auxiliary factor: none (no Gtsf1)
row,Sequence,pre-steady-state target cleavage rate
1,UCCUGGAUGUCCUUGCUUAGUAUUUAGAUA,0.00019 ± 0.029
2,UCCUGGAUGAGCUUGGAUAGUAUUUACAAA,0.000143 ± 0.056
3,UCCUGGAUGAGCAAGCAUAGUAUUUAGAAA,0.000266 ± 0.028
4,UCCUGGAUGUGCUUGCAUUGUAUUUACUUA,0.000496 ± 0.016
5,UCCUGCUACACCUAGCAUAGUAUUUAGUUA,0.000844 ± 0.0079
6,UCCUGGAUCAGCUUGCAUAGUAUUUAGGUUA,0.00113 ± 0.0093
7,UCCUGGUACAGCUUGCAUAGUUUUAGUUA,0.000356 ± 0.033
8,UCCUGGUUCUGCUUGCAUAGUAUUUAGUUA,0.00563 ± 0.0047
9,UCCUGGAUCAGCUUGCAAAGUAUUUAGAAA,0.000912 ± 0.0091
10,UCCUGGAUCUGCUUGCAUAGUAAUUAGUUA,0.0241 ± 0.0099
11,UCCUGGUACAGCCUGCAUAGUAUUUAGUUA,0.00106 ± 0.011
12,UCCUGCUACAGCUUGCAAAGUAUUUAGUAA,0.000302 ± 0.013
13,UCCUGGAUGUCCUUGCAUAGUAGUUUAGUUA,0.000839 ± 0.011
14,UCCUGGAACAGCUUCGAUAGUAUUUUCAAA,0.00026 ± 0.017
